Source: article doi:10.1101/2023.11.28.569054
Results are given in words; binding and its absence hold for the method and conditions named. In cells and extracts the contact can be indirect. A yes stands for co-enrichment or nearness to the bait. Other partners may have been found. Where a sequence is shown, tags or fusion partners need not be part of it.

By UniProt entry, the sequences of proteins in these tests, tags left out. Residues count along the entry.
UniProt P27824, residues 21-592: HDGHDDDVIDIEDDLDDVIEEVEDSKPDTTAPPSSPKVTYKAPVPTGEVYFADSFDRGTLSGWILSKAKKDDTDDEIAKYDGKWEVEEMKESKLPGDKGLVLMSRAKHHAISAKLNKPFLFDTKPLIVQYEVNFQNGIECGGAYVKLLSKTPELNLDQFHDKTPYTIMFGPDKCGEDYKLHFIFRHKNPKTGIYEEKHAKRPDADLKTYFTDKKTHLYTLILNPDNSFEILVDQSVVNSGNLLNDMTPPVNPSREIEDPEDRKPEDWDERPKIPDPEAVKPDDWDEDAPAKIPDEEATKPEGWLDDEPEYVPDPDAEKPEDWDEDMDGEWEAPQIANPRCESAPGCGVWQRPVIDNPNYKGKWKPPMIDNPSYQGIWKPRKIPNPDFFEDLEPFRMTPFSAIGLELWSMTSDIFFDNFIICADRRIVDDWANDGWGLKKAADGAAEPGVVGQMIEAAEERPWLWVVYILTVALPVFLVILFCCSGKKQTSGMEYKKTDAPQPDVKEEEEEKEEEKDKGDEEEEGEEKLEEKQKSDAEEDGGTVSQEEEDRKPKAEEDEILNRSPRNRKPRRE

Target: T1, GFP-EMC2 (human) (UniProt Q15006)
T1 sequence: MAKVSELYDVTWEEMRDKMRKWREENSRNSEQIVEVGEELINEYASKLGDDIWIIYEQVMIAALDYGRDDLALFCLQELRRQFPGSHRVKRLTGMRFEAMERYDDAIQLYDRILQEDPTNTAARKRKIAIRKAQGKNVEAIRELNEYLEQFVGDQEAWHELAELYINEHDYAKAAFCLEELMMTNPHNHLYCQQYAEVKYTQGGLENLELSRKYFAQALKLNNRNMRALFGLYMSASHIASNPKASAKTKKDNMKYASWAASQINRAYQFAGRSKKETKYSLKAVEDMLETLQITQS
Assay: affinity purification with mass spectrometry

binding | Substance
binds | Calnexin (from UniProt P27824 21-592)
binds | the ATPase p97 (from UniProt P55072 1-806)
